In PubChem BioAssay AID296 (DTP/NCI, 2004):
The list does not hold the whole screen: it is rich in T/C values a quarter to a half above the control, in often repeated tests (any T/C) and in doses without a T/C. Further doses and runs are listed elsewhere. T/C gives the treated animals as a percentage of the vehicle group. Schedule codes are those of the source, read here as Q, the interval in days (D) or hours (H), X, the number of doses. Some entries hold several experiments; their values stand side by side, smallest first. Some T/C values carry the count of animals alive at the toxicity check (mostly the fifth day); where none is given, no animal had died by that day. Some entries give survivors of the animals treated and no T/C: the source holds a T/C of zero for them, seemingly a mark for toxic or unscored doses. Counts of survivors are from the toxicity check (mostly the fifth day) where no day follows; animals may have died later.

System: MX-1 breast xenograft, nude mice, tumor weight T/C
Test: NCI In Vivo Anticancer Drug Screen. Data for tumor model Human Mammary Carcinoma MX-1 Xenograft (intrarenal inoculation) in NU/NU Swiss (nude) mice
Conditions: T/C endpoint: mean tumor weight change, higher T/C = larger tumour; for T/C: evaluated on day 11
Description: The antitumor activity of compounds was measured in mice bearing transplantable tumors. Survival or tumor size were measured and the results are expressed as the measurement made in the treated group (T) divided by the measurement made in the vehicle treated control group (C). The tumor model used in this assay is Human Mammary Carcinoma MX-1 Xenograft (intrarenal inoculation) in NU/NU Swiss (nude) mice

[1] = dose: 200.0 mg/kg/injection, schedule: Q04DX003 (sc), vehicle: saline with Tween-80
[2] = dose: 600.0 mg/kg/injection, schedule: Q04DX003 (sc), vehicle: Klucel (hydroxypropylcellulose) (HPC)
[3] = dose: 600.0 mg/kg/injection, schedule: Q04DX003 (sc), vehicle: saline with Tween-80
[4] = dose: 1200.0 mg/kg/injection, schedule: Q04DX003 (sc), vehicle: saline with Tween-80
[5] = dose: 2400.0 mg/kg/injection, schedule: Q04DX003 (sc), vehicle: saline with Tween-80
[6] = dose: 12.5 mg/kg/injection, schedule: Q04DX003 (sc), vehicle: saline with Tween-80
[7] = dose: 25.0 mg/kg/injection, schedule: Q04DX003 (sc), vehicle: saline with Tween-80
[8] = dose: 150.0 mg/kg/injection, schedule: Q04DX003 (sc), vehicle: saline with Tween-80
[9] = dose: 300.0 mg/kg/injection, schedule: Q04DX003 (sc), vehicle: saline with Tween-80
[10] = dose: 200.0 mg/kg/injection, schedule: Q01DX010 (sc), vehicle: saline

Structure (SMILES): CCOC(=O)Nc1cc2c(c(N)n1)N=C(CN(C)c1ccccc1)CN2
- survivor count (dose: 100.0 mg/kg/injection, schedule: Q01DX010 (sc), vehicle: Klucel (hydroxypropylcellulose) (HPC)): 1 of 3 on day 11

Structure (SMILES): C=C1N(C)c2ccccc2C1(C)C
- survivor count (dose: 100.0 mg/kg/injection, schedule: Q04DX003 (sc), vehicle: saline with Tween-80): 0 of 6 on day 11
- survivor count [1]: 0 of 6 on day 11

Structure (SMILES): C=C(C)C(=NC(C)(C)C)Nc1ccccc1
- survivor count [1]: 0 of 6 on day 11
- survivor count (dose: 400.0 mg/kg/injection, schedule: Q04DX003 (sc), vehicle: saline with Tween-80): 0 of 6 on day 11
- survivor count (dose: 800.0 mg/kg/injection, schedule: Q04DX003 (sc), vehicle: saline with Tween-80): 0 of 6 on day 11

Structure (SMILES): CC(CN1CC(=O)NC(=O)C1)N1CC(=O)NC(=O)C1 (stereo not drawn)
- survivor count [2]: 3 of 6 on day 11
- survivor count (dose: 1200.0 mg/kg/injection, schedule: Q04DX003 (sc), vehicle: Klucel (hydroxypropylcellulose) (HPC)): 0 of 6 on day 11

Structure (SMILES): O=Cc1ccc(O)c(O)c1
- T/C [3]: 134 % of control [5 of 6 alive on day 11]
- survivor count [4]: 3 of 6 on day 11
- survivor count [5]: 3 of 6 on day 11

Structure (SMILES): O=C1C=C[C@H](O)[C@@]2(CO)O[C@@H]12
- survivor count [6]: 1 of 5 on day 11
- survivor count [7]: 0 of 6 on day 11

Structure (SMILES): CC[C@](O)(C(=O)O)c1cc2n(c(=O)c1CO)Cc1cc3ccccc3nc1-2
- survivor count (dose: 128.0 mg/kg/injection, schedule: Q04DX003 (sc), vehicle: saline): 2 of 6 on day 11

Structure (SMILES): CC1=CC(=Nc2ccc(N(CCCl)CCCl)cc2)C=C(C)C1=O
- survivor count (dose: 2400.0 mg/kg/injection, schedule: Q04DX003 (sc), vehicle: Klucel (hydroxypropylcellulose) (HPC)): 1 of 6 on day 11

Structure (SMILES): Cc1cc2c(C(C)C)c(O)c(O)c(C=O)c2c(O)c1-c1c(C)cc2c(C(C)C)c(O)c(O)c(C=O)c2c1O
- T/C [8]: 126 % of control [5 of 6 alive on day 11]
- survivor count [9]: 3 of 6 on day 11
- survivor count [3]: 3 of 6 on day 11
- survivor count [4]: 0 of 6 on day 11

Structure (SMILES): COC(=O)Nc1nc2ccc(C3(c4ccc(F)cc4)OCCO3)cc2[nH]1
- T/C [7]: 129 % of control
- T/C [1]: 127 % of control

Structure (SMILES): COc1ccc(S(=O)(=O)N/N=C/C(=O)O)cc1
- survivor count (dose: 200.0 mg/kg/injection, schedule: Q01DX010 (sc), vehicle: saline with Tween-80): 1 of 6 on day 11 and 1 of 5 on day 11

Structure (SMILES): Nc1nc2c(C(=O)N3CCCC3)nnn2c2ccccc12
- survivor count [9]: 0 of 6 on day 11

Structure (SMILES): CC1(O)CC23CC(O)C4(O)C(CC(O)C4(C)C)C(C)(O)C2CCC1C3O (stereo not drawn)
- T/C (dose: 0.5 mg/kg/injection, schedule: Q04DX003 (sc), vehicle: Klucel (hydroxypropylcellulose) (HPC)): 132 % of control [5 of 6 alive on day 11]
- survivor count (dose: 1.0 mg/kg/injection, schedule: Q04DX003 (sc), vehicle: Klucel (hydroxypropylcellulose) (HPC)): 3 of 6 on day 11
- survivor count (dose: 2.0 mg/kg/injection, schedule: Q04DX003 (sc), vehicle: Klucel (hydroxypropylcellulose) (HPC)): 0 of 6 on day 11

Structure (SMILES): Nc1n[n+](-c2ccccc2)no1
- survivor count (dose: 150.0 mg/kg/injection, schedule: Q04DX003 (sc), vehicle: water): 1 of 6 on day 11

Structure (SMILES): CC(=O)C1(O)Cc2c(O)c3c(c(O)c2C(OC2CC(N)C(O)C(C)O2)C1)C(=O)c1ccccc1C3=O (stereo not drawn)
- survivor count (dose: 2.0 mg/kg/injection, schedule: Q04DX003 (sc), vehicle: water): 3 of 6 on day 11
- survivor count (dose: 4.0 mg/kg/injection, schedule: Q04DX003 (sc), vehicle: water): 0 of 6 on day 11

Structure (SMILES): NC(=S)c1cn(C2OC(CO)C(O)C2O)c2ncnc(N)c12 (stereo not drawn)
- survivor count (dose: 25.0 mg/kg/injection, schedule: Q04DX003 (sc), vehicle: suspension in saline): 0 of 6 on day 11
- survivor count (dose: 50.0 mg/kg/injection, schedule: Q04DX003 (sc), vehicle: suspension in saline): 0 of 6 on day 11

Structure (SMILES): CCOC1=Cc2c(oc3c(C(C)(C)C)cc(OCC)cc23)OC(C(C)(C)C)=C1
- T/C (dose: 37.5 mg/kg/injection, schedule: Q04DX003 (sc), vehicle: saline with Tween-80): 91, 92, 106, 107 % of control
- T/C (dose: 75.0 mg/kg/injection, schedule: Q04DX003 (sc), vehicle: saline with Tween-80): 74, 94, 118, 132 % of control
- T/C [8]: 55, 64, 123, 149 % of control
- T/C [9]: 97, 99, 102, 112 % of control

Structure (SMILES): NC(C/[N+]([O-])=N/O)C(=O)O (stereo not drawn)
- survivor count [10]: 0 of 3 on day 11
- survivor count (dose: 400.0 mg/kg/injection, schedule: Q01DX010 (sc), vehicle: saline): 0 of 3 on day 11

Structure (SMILES): CC(C)CCCCCCCCCCCCC(=O)NCC(=O)NC1C(O)C(O)C(Nc2ncnc3nc[nH]c23)OC1C(O)CO (stereo not drawn)
- survivor count (dose: 2.5 mg/kg/injection, schedule: Q01DX010 (sc), vehicle: saline): 1 of 3 on day 11
- survivor count (dose: 3.2 mg/kg/injection, schedule: Q01DX010 (sc), vehicle: saline): 0 of 3 on day 11
- survivor count (dose: 25.0 mg/kg/injection, schedule: Q01DX010 (sc), vehicle: saline): 0 of 3 on day 11
- survivor count (dose: 50.0 mg/kg/injection, schedule: Q01DX010 (sc), vehicle: saline): 0 of 3 on day 11
- survivor count (dose: 100.0 mg/kg/injection, schedule: Q01DX010 (sc), vehicle: saline): 0 of 3 on day 11
- survivor count [10]: 0 of 2 on day 11

Structure (SMILES): Cc1nc(N)nc(N)c1-c1ccc(Cl)c(Cl)c1
- T/C (dose: 1.88 mg/kg/injection, schedule: Q04DX003 (sc), vehicle: saline): 142 % of control
- survivor count (dose: 24.0 mg/kg/injection, schedule: Q04DX003 (sc), vehicle: saline): 3 of 6 on day 11

Structure (SMILES): CN=C(N)N/N=C(\c1ccccc1)c1ccc(Br)cc1
- T/C [6]: 131 % of control

Structure (SMILES): C=C1C(=O)OCC2C(C(=O)O)=CC3C(C)C(C)=CC123 (stereo not drawn)
- T/C (dose: 3.13 mg/kg/injection, schedule: Q01DX010 (sc), vehicle: Klucel (hydroxypropylcellulose) (HPC)): 128 % of control
- T/C (dose: 25.0 mg/kg/injection, schedule: Q01DX010 (sc), vehicle: Klucel (hydroxypropylcellulose) (HPC)): 144 % of control

Structure (SMILES): O=C1CN(CO)C(=O)N1CO
- T/C (dose: 50.0 mg/kg/injection, schedule: Q04DX003 (ip), vehicle: saline): 139 % of control

Structure (SMILES): C/C(=N\NC(=S)N1CC2CCC(CC2)C1)c1cccc(C)n1
- T/C (dose: 12.5 mg/kg/injection, schedule: Q04DX003 (ip), vehicle: saline with Tween-80): 126 % of control
- T/C (dose: 25.0 mg/kg/injection, schedule: Q04DX003 (ip), vehicle: saline with Tween-80): 135 % of control
- survivor count (dose: 100.0 mg/kg/injection, schedule: Q04DX003 (ip), vehicle: saline with Tween-80): 3 of 6 on day 11

Structure (SMILES): CCC[CH2][Sn]1([CH2]CCC)[O]C2C(CO)OC(n3ccc(N)nc3=O)C2[O]1 (stereo not drawn)
- survivor count (dose: 48.0 mg/kg/injection, schedule: Q04DX003 (sc), vehicle: Klucel (hydroxypropylcellulose) (HPC)): 1 of 6 on day 11
- survivor count (dose: 96.0 mg/kg/injection, schedule: Q04DX003 (sc), vehicle: Klucel (hydroxypropylcellulose) (HPC)): 2 of 6 on day 11

Structure (SMILES): CN=S(=O)(OCCCCCOS(=O)(=NC)c1ccccc1)c1ccccc1 (stereo not drawn)
- T/C [9]: 127 % of control
- survivor count [4]: 2 of 6 on day 11
- survivor count [5]: 0 of 6 on day 11

Structure (SMILES): COC1CC2C=C(C)/C=C/C=C/C(=O)NC(c3ccccc3)C/C=C/CCC(O)CC(=O)C2=C1O (stereo not drawn)
- survivor count [2]: 2 of 6 on day 11
